This test deals with nude mice, LOX melanoma ip, survival T/C. The experiment in a line: NCI In Vivo Anticancer Drug Screen. Data for tumor model Human Amelanotic Melanoma (LOX) (intraperitoneal) in NU/NU BALB/C (nude) mice. The settings on record: T/C endpoint: median survival time, higher T/C = longer survival. How it is done: The antitumor activity of compounds was measured in mice bearing transplantable tumors. Survival or tumor size were measured and the results are expressed as the measurement made in the treated group (T) divided by the measurement made in the vehicle treated control group (C). The tumor model used in this assay is Human Amelanotic Melanoma (LOX) (intraperitoneal) in NU/NU BALB/C (nude) mice

Where [1] appears, read: dose: 300.0 mg/kg/injection, schedule: Q04DX003 (ip), vehicle: saline with Tween-80.
Where [2] appears, read: dose: 600.0 mg/kg/injection, schedule: Q04DX003 (ip), vehicle: saline with Tween-80.
Where [3] appears, read: dose: 1200.0 mg/kg/injection, schedule: Q04DX003 (ip), vehicle: Klucel (hydroxypropylcellulose) (HPC).
Where [4] appears, read: dose: 150.0 mg/kg/injection, schedule: Q04DX003 (ip), vehicle: Klucel (hydroxypropylcellulose) (HPC).
Setting [5] is: dose: 300.0 mg/kg/injection, schedule: Q04DX003 (ip), vehicle: Klucel (hydroxypropylcellulose) (HPC).

The list shows only some results of the screen, not a fair sample: it is rich in T/C values a quarter to a half above the control, in often repeated tests (any T/C) and in doses without a T/C. Other doses and runs of a compound stand elsewhere. T/C: endpoint of the treated group in % of that of the vehicle group. Some entries give survivors of the animals treated and no T/C: the source holds a T/C of zero for them, seemingly a mark for toxic or unscored doses. Some survivor counts are full or nearly so, which does not show that the dose was tolerated: the source hardly ever lists a survival T/C far under the control, and the zero likely stands for such cases as well. Survivors were counted at the toxicity check, usually on the fifth day, unless a day is given; later deaths do not show. Schedules are NCI's codes, taken here to give the interval after Q, in days (D) or hours (H), and the number of doses after X. Some doses were run more than once; the values are given in rising order. Some molecules as drawn cover several salts, stereoisomers or complexes of the source; a dose is that of the sample tested. Where survival is the endpoint, this PubChem deposit counts one and a half times the control or more as active, and values a quarter to a half above the control carry no call in these data; other NCI protocols may use other cut-offs. Some T/C values carry the count of animals alive at the toxicity check (mostly the fifth day); without a count, all were alive then.

Results on 17 compounds are retold here after PubChem BioAssay AID280 (DTP/NCI, 2004).

Take `O=NNc1cnccn1`: the T/C runs as follows: (dose: 7.5 mg/kg/injection, schedule: Q03HX008 (ip), vehicle: other) 125 % of control; (dose: 16.9 mg/kg/injection, schedule: Q03HX008 (ip), vehicle: other) 145 % of control; (dose: 25.0 mg/kg/injection, schedule: Q04DX003 (ip), vehicle: water) 128 % of control; (dose: 25.3 mg/kg/injection, schedule: Q01DX005 (iv), vehicle: other) 132 % of control; (dose: 29.7 mg/kg/injection, schedule: Q04DX003 (ip), vehicle: water) 131 % of control; (dose: 38.0 mg/kg/injection, schedule: Q04DX003 (ip), vehicle: other) 131 % of control. Besides, the T/C (dose: 38.0 mg/kg/injection, schedule: Q08DX002 (ip), vehicle: other) was 138 % of control; the T/C (dose: 57.0 mg/kg/injection, schedule: Q08DX002 (ip), vehicle: other) was 145 % of control; the T/C (dose: 85.4 mg/kg/injection, schedule: Q01DX001 (ip), vehicle: other) is 125 % of control; the T/C (dose: 128.0 mg/kg/injection, schedule: Q01DX001 (iv), vehicle: other) was 133 % of control; the T/C (dose: 192.0 mg/kg/injection, schedule: Q01DX001 (iv), vehicle: other) is 135 % of control. Moreover, the survivor count reads like this: (dose: 38.0 mg/kg/injection, schedule: Q03HX008 (ip), vehicle: other) 4 of 10 on day 14; (dose: 57.0 mg/kg/injection, schedule: Q03HX008 (ip), vehicle: other) 0 of 10 on day 14; (dose: 85.4 mg/kg/injection, schedule: Q01DX005 (iv), vehicle: other) 10 of 10 on day 14; (dose: 128.0 mg/kg/injection, schedule: Q01DX005 (iv), vehicle: other) 0 of 10 on day 14; (dose: 192.0 mg/kg/injection, schedule: Q04DX003 (ip), vehicle: other) 10 of 10 on day 14; (dose: 192.0 mg/kg/injection, schedule: Q04DX003 (iv), vehicle: other) 10 of 10 on day 14. Moreover, the survivor count runs as follows: (dose: 287.8 mg/kg/injection, schedule: Q01DX001 (ip), vehicle: other) 10 of 10 on day 14; (dose: 287.8 mg/kg/injection, schedule: Q01DX001 (iv), vehicle: other) 7 of 10 on day 14; (dose: 287.8 mg/kg/injection, schedule: Q08DX002 (ip), vehicle: other) 10 of 10 on day 14.

Take `CCCCCCNc1nc(NCCCCCC)c2[nH]c(NCCCCCC)nc2n1`: the T/C reads like this: (dose: 75.0 mg/kg/injection, schedule: Q04DX003 (ip), vehicle: saline with Tween-80) 127 % of control; under setting [1], 127 % of control. Further, the survivor count under setting [2] is 1 of 6 on day 10.

Consider `O=C(Nc1cc(Cl)ccc1C(=O)O)c1cccc(C[n+]2ccccc2)c1`, for which the survivor count was 5 of 6 on day 10 and 6 of 6 on day 10 (dose: 150.0 mg/kg/injection, schedule: Q04DX003 (ip), vehicle: saline with Tween-80); 6 of 6 on day 10 under setting [1]; 0 of 6 on day 10 under setting [2].

For `CO[C@@H]1C2=CC=CC=C[C@H]2n2c(=O)n(C)c(=O)n21`, the survivor count reads like this: (dose: 300.0 mg/kg/injection, schedule: Q04DX003 (ip), vehicle: other) 1 of 6 on day 10; (dose: 600.0 mg/kg/injection, schedule: Q04DX003 (ip), vehicle: other) 0 of 6 on day 10.

Take `O=C1CC2(C(=O)N1CN1CCOCC1)c1ccccc1-c1ccccc12`: the survivor count under setting [3] is 2 of 6 on day 10.

In the case of `Cc1cc(Nc2ccc3c(c2)OCO3)c2cc3c(cc2n1)OCO3`, the T/C by setting is: under setting [4], 125 % of control; (dose: 360.0 mg/kg/injection, schedule: Q04DX003 (ip), vehicle: Klucel (hydroxypropylcellulose) (HPC)) 131 % of control. Further, the survivor count is given as 2 of 6 on day 10 under setting [5]; 1 of 6 on day 10 (dose: 1000.0 mg/kg/injection, schedule: Q04DX003 (ip), vehicle: Klucel (hydroxypropylcellulose) (HPC)); 0 of 6 on day 10 under setting [3]; 0 of 6 on day 10 (dose: 1667.0 mg/kg/injection, schedule: Q04DX003 (ip), vehicle: Klucel (hydroxypropylcellulose) (HPC)).

For `N/C(=N\OC(=O)Nc1ccc(CSc2ccc(Cl)cc2)o1)c1ccccn1`, the survivor count under setting [5] was 2 of 6 on day 10.

Turning to `CCCSc1nc(COC(=O)NC)c(COC(=O)NC)n1C`, where the note is “dose: 480.0 mg/kg/injection, schedule: Q04DX003 (ip), vehicle: saline”, the survivor count is 0 of 6 on day 10.

Take `Cn1cc(C2NC(=O)c3ccccc3N2)c2ccccc21` (stereo unspecified): the T/C is, setting by setting: (dose: 75.0 mg/kg/injection, schedule: Q04DX003 (ip), vehicle: Klucel (hydroxypropylcellulose) (HPC)) 135 % of control; under setting [4], 141 % of control; under setting [5], 132 % of control; (dose: 600.0 mg/kg/injection, schedule: Q04DX003 (ip), vehicle: Klucel (hydroxypropylcellulose) (HPC)) 141 % of control. Moreover, the survivor count under setting [3] is 3 of 6 on day 10.

On to `Nc1ccn([C@@H]2C=C(CO)[C@@H](O)[C@H]2O)c(=O)n1`, for which the T/C runs as follows: (dose: 0.5 mg/kg/injection, schedule: Q01DX009 (ip), vehicle: saline) 147 % of control; (dose: 2.0 mg/kg/injection, schedule: Q01DX009 (ip), vehicle: saline) 146 % of control. Further, the survivor count reads like this: (dose: 4.0 mg/kg/injection, schedule: Q01DX009 (ip), vehicle: saline) 6 of 6 on day 10; (dose: 8.0 mg/kg/injection, schedule: Q01DX009 (ip), vehicle: saline) 0 of 6 on day 10.

As to `O=C1c2cccc(NCCCNCCO)c2C(=O)c2cccc(NCCCNCCO)c21`, the T/C runs as follows: (dose: 18.75 mg/kg/injection, schedule: Q04DX003 (ip), vehicle: saline) 132 % of control; (dose: 31.0 mg/kg/injection, schedule: Q04DX003 (ip), vehicle: acid diluted with saline) 141 % of control; (dose: 52.0 mg/kg/injection, schedule: Q04DX003 (ip), vehicle: acid diluted with saline) 137 % of control. Besides, where the note is “dose: 52.08 mg/kg/injection, schedule: Q04DX003 (ip), vehicle: acid diluted with saline”, the survivor count is on record as 0 of 6 on day 10.

As to `CN(C)C(=O)Nc1ccc(Cl)cc1`, the survivor count (dose: 1200.0 mg/kg/injection, schedule: Q04DX003 (ip), vehicle: suspension in saline) was 0 of 6 on day 10.

Take `COc1cccc2c1C(=O)c1c(O)c3c(c(O)c1C2=O)C[C@](O)(C(=O)CO)CC3OC1CC(N)C(OC2CCCCO2)C(C)O1` (stereo partly specified): the T/C by setting is: (dose: 1.88 mg/kg/injection, schedule: Q04DX003 (ip), vehicle: water) 139 % of control; (dose: 3.75 mg/kg/injection, schedule: Q04DX003 (ip), vehicle: water) 141 % of control.

As to `Cc1cc2c(=O)cc(-c3ccccc3)oc2c(C(=O)O)c1C`, the survivor count (dose: 500.0 mg/kg/injection, schedule: Q04DX003 (ip), vehicle: saline with Tween-80) is recorded as 0 of 6 on day 10 and the survivor count (dose: 1000.0 mg/kg/injection, schedule: Q04DX003 (ip), vehicle: saline with Tween-80) is listed as 0 of 6 on day 10.

`O=C(O)Cc1cccc2c(=O)cc(-c3ccccc3)oc12`: the T/C is 128 % of control (dose: 100.0 mg/kg/injection, schedule: Q04DX003 (ip), vehicle: sodium bicarbonate); 139 % of control (dose: 200.0 mg/kg/injection, schedule: Q04DX003 (ip), vehicle: sodium bicarbonate); 128 % of control [4 of 6 alive on day 10] (dose: 400.0 mg/kg/injection, schedule: Q04DX003 (ip), vehicle: sodium bicarbonate).

On to `CN1C2C=CC(=O)C1C1C(=O)N(c3ccccc3)C(=O)C12` (stereo unspecified), for which, for the setting “dose: 800.0 mg/kg/injection, schedule: Q04DX003 (ip), vehicle: Klucel (hydroxypropylcellulose) (HPC)”, the survivor count was 0 of 6 on day 10.

Consider `O=C(C/C(=N\C(=S)Nc1cc(C(F)(F)F)ccc1Cl)NO)N1CCCC1`, for which the survivor count is, setting by setting: (dose: 400.0 mg/kg/injection, schedule: Q04DX003 (ip), vehicle: saline with Tween-80) 2 of 5 on day 10; (dose: 800.0 mg/kg/injection, schedule: Q04DX003 (ip), vehicle: saline with Tween-80) 1 of 6 on day 10.
